From patent US20090176209A1
Results are given in words; binding and its absence hold for the method and conditions named. Some results given as binding are weak or reduced against the parent protein; the word gives no strength. Where a sequence is shown, tags or fusion partners need not be part of it.

The chains behind the UniProt entries cited, without tags or fusion partners. Residues count along the entry.
UniProt P19438, residues 30-211: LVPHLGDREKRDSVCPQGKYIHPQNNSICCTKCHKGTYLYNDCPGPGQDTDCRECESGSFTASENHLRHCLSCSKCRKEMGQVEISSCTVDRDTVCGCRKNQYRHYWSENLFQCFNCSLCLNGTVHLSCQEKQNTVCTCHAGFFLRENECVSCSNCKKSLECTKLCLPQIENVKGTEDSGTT

What was measured:
[1] = biological target: human TNF receptor, biotinylated (human) (UniProt P19438); assay: model selection from emulsion; capture on coated PCR tubes; PCR and gel
[2] = biological target: human TNF receptor, biotinylated (human) (UniProt P19438); assay: protein-DNA complex captured on coated PCR tubes; PCR and gel (figure legend)
[3] = biological target: protein A (Sigma), biotinylated (UniProt P38507); assay: as above
[4] = biological target: human TNF receptor, biotinylated (human) (UniProt P19438); assay: protein-DNA complex captured on biotinylated protein in streptavidin-coated PCR tubes; PCR and gel
[5] = biological target: protein A (Sigma), biotinylated (UniProt P38507); assay: as above

Measured: binding

B1: VH(DOM1h-10-27)-scArc fusion protein (pIE2aAVH(DOM1h-10-27)) (protein)
chain: MAEVQLLESGGGLVQPGGSLRLSCAASGFTFEWYWMGWVRQAPGKGLEWVSAISGSGGSTYYADSVKGRFTISRDNSKNTLYLQMNSLRAEDAAVYYCAKVKLGGGPNFGYRGQGTLVTVSSAAGGGSGGGHMKGMSKMPQFNLRWPREVLDLVRKVAEENGRSVNSEIYQRVMESFKKEGRIGAGGGSGGGSGGGSGGGHMKGMSKMPQFNLRWPREVLDLVRKVAEENGRSVNSEIYQRVMESFKKEGRIGAGGGSGGGSYPYDVPDYA
binds: all assays above
